± gives the standard deviation of the averaged measurements. Small differences around the control level are noise.
Tests used:
Assay in all cases: level (log10 ratio to DMSO vehicle control); higher = higher biomarker level / cell amount than vehicle control
[1] = compound: C=C(C)C(=O)OCC(F)(F)C(F)(F)C(F)(F)C(F)(F)C(F)(F)C(F)(F)C(F)(F)F; details: in DMSO
Method: (§1)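 BioMAP Diversity Plus panel of 12 human primary cell co-culture systems (3C, 4H, LPS, SAg, BT, BF4T, BE3C, CASM3C, HDF3CGF, KF3CT, MyoF, Mphg). Compounds were added 1 h before stimulation and left for 24 h (MyoF 48 h; BT 72 h for soluble read-outs or 6 d for IgG). Biomarkers were read by ELISA, cytotoxicity by SRB, PBMC viability and proliferation by Alamar Blue. Each well value was divided by the mean of 8 DMSO control wells on the same plate and log10 transformed; duplicate blinded samples were tested at 4 concentrations.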

[2] = compound: C=CC(=O)OCC(F)(F)C(F)(F)C(F)(F)C(F)(F)C(F)(F)C(F)(F)C(F)(F)F [1H,1H-Perfluorooctyl acrylate]; details: 2200 nM; in DMSO
Method: as §1

[3] = compound: C=CC(F)(F)C(F)(F)C(F)(F)C(F)(F)C(F)(F)C(F)(F)C(F)(F)C(F)(F)C=C [1,8-Divinylperfluorooctane]; details: in DMSO
Method: as §1

[4] = compound: COC(=O)C(F)(F)C(F)(F)OC(F)(C(F)(F)F)C(F)(F)OC(F)=C(F)F [Methyl perfluoro(3-(1-ethenyloxypropan-2-yloxy)propanoate)]; details: in DMSO
Method: as §1

[5] = compound: CO[Si](C)(CCC(F)(F)C(F)(F)C(F)(F)C(F)(F)C(F)(F)C(F)(F)F)OC [Dimethoxymethyl((perfluorohexyl)ethyl)silane]; details: in DMSO
Method: as §1

[6] = compound: FC(F)(F)C(F)(F)C(F)(F)CC1CO1 [1H,1H-Heptafluorobutyl epoxide]; details: 2200 nM; in DMSO
Method: as §1

[7] = compound: FC(F)(F)C(F)(F)C(F)(F)CI [Heptafluorobutyl iodide]; details: 2200 nM; in DMSO
Method: as §1

[8] = compound: NC(=O)C(F)(F)C(F)(F)C(F)(F)C(F)F; details: in DMSO
Method: as §1

[9] = compound: NC(=O)C(F)(F)C(F)(F)F [Pentafluoropropionamide]; details: 2200 nM; in DMSO
Method: as §1

[10] = compound: NS(=O)(=O)C(F)(F)C(F)(F)C(F)(F)C(F)(F)C(F)(F)C(F)(F)C(F)(F)C(F)(F)F [Perfluorooctanesulfonamide]; details: in DMSO
Method: as §1

[11] = compound: O=C(O)C(F)(F)C(F)(F)C(F)F [4H-Perfluorobutanoic acid]; details: in DMSO
Method: as §1

[12] = compound: O=P(O)(O)CCC(F)(F)C(F)(F)C(F)(F)C(F)(F)C(F)(F)C(F)(F)F [2-(Perfluorohexyl)ethylphosphonic acid]; details: 2200 nM; in DMSO
Method: as §1

[13] = compound: O=S(=O)(F)C(F)(F)C(F)(F)C(F)(F)C(F)(F)C(F)(F)C(F)(F)C(F)(F)C(F)(F)F [Perfluorooctanesulfonyl fluoride]; details: 2200 nM; in DMSO
Method: as §1

[14] = compound: O=S(=O)(O)C(F)(F)C(F)(F)C(F)(F)C(F)(F)C(F)(F)C(F)(F)C(F)(F)C(F)(F)F [Perfluorooctanesulfonic acid]; details: 2200 nM; in DMSO
Method: as §1

[15] = compound: O=S(=O)(O)C(F)(F)C(F)(F)C(F)(F)C(F)(F)C(F)(F)C(F)(F)C(F)(F)C(F)(F)F [Potassium perfluorooctanesulfonate]; details: 2200 nM; in DMSO
Method: as §1

[16] = compound: O=S(=O)(OCC(F)(F)F)C(F)(F)C(F)(F)C(F)(F)C(F)(F)F [2,2,2-Trifluoroethyl perfluorobutanesulfonate]; details: 2200 nM; in DMSO
Method: as §1

[17] = compound: OCC(F)(F)C(F)(F)C(F)(F)C(F)(F)C(F)(F)C(F)F [1H,1H,7H-Dodecafluoro-1-heptanol]; details: 2200 nM; in DMSO
Method: as §1

[18] = compound: OCCCCC(F)(F)C(F)(F)C(F)(F)C(F)(F)F [4:4 Fluorotelomer alcohol]; details: 2200 nM; in DMSO
Method: as §1

| Test System | level (log10) ([1]; 740 nM) | level (log10) ([1]; 2200 nM) | level (log10) [2] | level (log10) ([3]; 740 nM) | level (log10) ([3]; 2200 nM) | level (log10) ([4]; 740 nM) | level (log10) ([4]; 2200 nM) | level (log10) ([5]; 740 nM) | level (log10) ([5]; 2200 nM) | level (log10) [6] | level (log10) [7] | level (log10) ([8]; 2200 nM) | level (log10) ([8]; 6700 nM) | level (log10) ([8]; 20000 nM) | level (log10) ([8]; 60000 nM) | level (log10) [9] | level (log10) ([10]; 2200 nM) | level (log10) ([10]; 6700 nM) | level (log10) ([10]; 20000 nM) | level (log10) ([11]; 2200 nM) | level (log10) ([11]; 6700 nM) | level (log10) ([11]; 20000 nM) | level (log10) ([11]; 60000 nM) | level (log10) [12] | level (log10) [13] | level (log10) [14] | level (log10) [15] | level (log10) [16] | level (log10) [17] | level (log10) [18] |
| --- | --- | --- | --- | --- | --- | --- | --- | --- | --- | --- | --- | --- | --- | --- | --- | --- | --- | --- | --- | --- | --- | --- | --- | --- | --- | --- | --- | --- | --- | --- |
| HDF3CGF:SRB | -0.0135 ± 0.056 | 0 ± 0.017 | 0.031 ± 0.024 | -0.0205 ± 0.0021 | -0.0225 ± 0.043 | 0.021 ± 0.0085 | -0.002 ± 0.027 | -0.0235 ± 0.052 | -0.0235 ± 0.067 | -0.0295 ± 0.013 | -0.018 ± 0.02 | 0.0175 ± 0.03 | -0.007 ± 0.0042 | 0.0065 ± 0.016 | -0.0035 ± 0.015 | -0.0245 ± 0.035 | -0.0215 ± 0.03 | -0.028 ± 0.055 | 0.0615 ± 0.019 | -0.0275 ± 0.015 | -0.0125 ± 0.06 | -0.0095 ± 0.0035 | 0.0155 ± 0.022 | -0.0225 ± 0.012 | 0.014 ± 0.0028 | 0.0065 ± 0.036 | -0.0255 ± 0.013 | 0.026 ± 0.013 | -0.057 ± 0.014 | -0.0165 ± 0.056 |
| SAg:CD38 | -0.003 ± 0.0028 | -0.0055 ± 0.013 | 0.007 ± 0.028 | -0.001 ± 0.017 | -0.022 ± 0.011 | 0.033 ± 0.071 | -0.021 ± 0.089 | 0.001 ± 0.041 | -0.0025 ± 0.00071 | 0.0335 ± 0.06 | -0.0045 ± 0.012 | -0.0105 ± 0.012 | -0.034 ± 0.014 | -0.027 ± 0.02 | -0.0295 ± 0.0064 | 0.01 ± 0.0071 | -0.0005 ± 0.043 | -0.006 ± 0.0071 | -0.089 ± 0.016 | 0.0465 ± 0.005 | 0.008 ± 0.028 | 0.0195 ± 0.0021 | 0.017 ± 0.021 | 0.0075 ± 0.00071 | 0.013 ± 0.0042 | -0.008 ± 0.014 | -0.017 ± 0.0085 | -0.008 ± 0.014 | 0.005 ± 0.011 | -0.008 ± 0.0028 |
| BE3C:CD87/uPAR | 0.033 ± 0.037 | 0.006 ± 0.04 | -0.011 ± 0.0014 | 0.0045 ± 0.042 | -0.01 ± 0.035 | 0.0285 ± 0.018 | 0.029 ± 0.033 | 0.018 ± 0.013 | 0.0165 ± 0.022 | 0.0165 ± 0.015 | -0.0115 ± 0.0021 | -0.013 ± 0.027 | -0.02 ± 0.011 | -0.0205 ± 0.0035 | -0.0145 ± 0.015 | 0.011 ± 0.03 | 0.005 ± 0.03 | -0.01 ± 0.0071 | -0.0025 ± 0.019 | 0.011 ± 0.025 | -0.003 ± 0.013 | -0.0175 ± 0.019 | 0.0015 ± 0.005 | 0.0205 ± 0.0078 | -0.0035 ± 0.011 | 0.02 ± 0.037 | 0.0115 ± 0.071 | -0.0285 ± 0.005 | 0.008 ± 0.04 | 0.0205 ± 0.071 |
| HDF3CGF:TIMP-2 | 0.0095 ± 0.046 | 0.0015 ± 0.00071 | 0.0025 ± 0.016 | -0.0075 ± 0.025 | -0.0215 ± 0.0078 | -0.008 ± 0.023 | -0.0245 ± 0.022 | -0.0455 ± 0.066 | -0.051 ± 0.068 | -0.0395 ± 0.098 | 0.0005 ± 0.026 | -0.0165 ± 0.039 | 0.015 ± 0.025 | 0.027 ± 0.033 | 0.003 ± 0.0028 | -0.001 ± 0.0014 | -0.0395 ± 0.00071 | -0.0545 ± 0.0021 | -0.102 ± 0.044 | -0.019 ± 0.0085 | -0.0295 ± 0.066 | -0.01 ± 0.044 | -0.003 ± 0.059 | -0.0485 ± 0.069 | 0.0045 ± 0.015 | -0.046 ± 0.0028 | -0.0235 ± 0.029 | -0.023 ± 0.031 | -0.0055 ± 0.015 | 0.0115 ± 0.032 |

— the supplement of paper PMC10331698
